Assay results as given in publication PMC10445738.
Like-named read-outs stand apart in the source and are kept apart here. No constants are given. Whether binding was seen depends on the method and setting. Binding seen in cells or lysates may run through a third protein. A yes stands for co-enrichment or nearness to the bait. Other partners may have been found. For some of these results: A no says only that the protein was not detected with the bait. Blank lines part the entries; values can stand above or below the molecule they belong to.

Chains of the proteins cited; added tags and fusions are not shown. Lines headed by an entry give the natural chain unless they say otherwise; changes in a name come on top. Residues count along the entry.
UniProt Q96BN8: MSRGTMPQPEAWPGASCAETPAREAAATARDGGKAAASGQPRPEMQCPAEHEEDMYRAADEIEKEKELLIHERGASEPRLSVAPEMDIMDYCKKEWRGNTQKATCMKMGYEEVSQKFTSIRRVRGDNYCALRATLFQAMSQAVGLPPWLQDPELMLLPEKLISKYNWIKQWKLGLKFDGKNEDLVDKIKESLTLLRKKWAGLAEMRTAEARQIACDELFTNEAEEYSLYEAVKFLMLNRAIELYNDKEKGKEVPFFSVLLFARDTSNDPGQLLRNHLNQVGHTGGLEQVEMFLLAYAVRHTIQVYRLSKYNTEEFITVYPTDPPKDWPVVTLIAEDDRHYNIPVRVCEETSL
FLAG-OTULIN^C105X: residues 1-105 of Q96BN8
FLAG-OTULIN^Δ54: residues 55-352 of Q96BN8
UniProt Q15599: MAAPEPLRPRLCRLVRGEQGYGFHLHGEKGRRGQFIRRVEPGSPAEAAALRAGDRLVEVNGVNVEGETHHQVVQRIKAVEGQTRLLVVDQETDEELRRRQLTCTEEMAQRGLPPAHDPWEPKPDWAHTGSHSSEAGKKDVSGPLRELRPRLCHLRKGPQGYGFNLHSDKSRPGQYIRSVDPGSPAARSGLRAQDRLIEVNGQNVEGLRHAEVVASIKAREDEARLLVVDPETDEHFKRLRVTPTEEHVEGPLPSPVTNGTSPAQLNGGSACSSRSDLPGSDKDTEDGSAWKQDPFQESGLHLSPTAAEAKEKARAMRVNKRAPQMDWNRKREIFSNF
UniProt Q14160: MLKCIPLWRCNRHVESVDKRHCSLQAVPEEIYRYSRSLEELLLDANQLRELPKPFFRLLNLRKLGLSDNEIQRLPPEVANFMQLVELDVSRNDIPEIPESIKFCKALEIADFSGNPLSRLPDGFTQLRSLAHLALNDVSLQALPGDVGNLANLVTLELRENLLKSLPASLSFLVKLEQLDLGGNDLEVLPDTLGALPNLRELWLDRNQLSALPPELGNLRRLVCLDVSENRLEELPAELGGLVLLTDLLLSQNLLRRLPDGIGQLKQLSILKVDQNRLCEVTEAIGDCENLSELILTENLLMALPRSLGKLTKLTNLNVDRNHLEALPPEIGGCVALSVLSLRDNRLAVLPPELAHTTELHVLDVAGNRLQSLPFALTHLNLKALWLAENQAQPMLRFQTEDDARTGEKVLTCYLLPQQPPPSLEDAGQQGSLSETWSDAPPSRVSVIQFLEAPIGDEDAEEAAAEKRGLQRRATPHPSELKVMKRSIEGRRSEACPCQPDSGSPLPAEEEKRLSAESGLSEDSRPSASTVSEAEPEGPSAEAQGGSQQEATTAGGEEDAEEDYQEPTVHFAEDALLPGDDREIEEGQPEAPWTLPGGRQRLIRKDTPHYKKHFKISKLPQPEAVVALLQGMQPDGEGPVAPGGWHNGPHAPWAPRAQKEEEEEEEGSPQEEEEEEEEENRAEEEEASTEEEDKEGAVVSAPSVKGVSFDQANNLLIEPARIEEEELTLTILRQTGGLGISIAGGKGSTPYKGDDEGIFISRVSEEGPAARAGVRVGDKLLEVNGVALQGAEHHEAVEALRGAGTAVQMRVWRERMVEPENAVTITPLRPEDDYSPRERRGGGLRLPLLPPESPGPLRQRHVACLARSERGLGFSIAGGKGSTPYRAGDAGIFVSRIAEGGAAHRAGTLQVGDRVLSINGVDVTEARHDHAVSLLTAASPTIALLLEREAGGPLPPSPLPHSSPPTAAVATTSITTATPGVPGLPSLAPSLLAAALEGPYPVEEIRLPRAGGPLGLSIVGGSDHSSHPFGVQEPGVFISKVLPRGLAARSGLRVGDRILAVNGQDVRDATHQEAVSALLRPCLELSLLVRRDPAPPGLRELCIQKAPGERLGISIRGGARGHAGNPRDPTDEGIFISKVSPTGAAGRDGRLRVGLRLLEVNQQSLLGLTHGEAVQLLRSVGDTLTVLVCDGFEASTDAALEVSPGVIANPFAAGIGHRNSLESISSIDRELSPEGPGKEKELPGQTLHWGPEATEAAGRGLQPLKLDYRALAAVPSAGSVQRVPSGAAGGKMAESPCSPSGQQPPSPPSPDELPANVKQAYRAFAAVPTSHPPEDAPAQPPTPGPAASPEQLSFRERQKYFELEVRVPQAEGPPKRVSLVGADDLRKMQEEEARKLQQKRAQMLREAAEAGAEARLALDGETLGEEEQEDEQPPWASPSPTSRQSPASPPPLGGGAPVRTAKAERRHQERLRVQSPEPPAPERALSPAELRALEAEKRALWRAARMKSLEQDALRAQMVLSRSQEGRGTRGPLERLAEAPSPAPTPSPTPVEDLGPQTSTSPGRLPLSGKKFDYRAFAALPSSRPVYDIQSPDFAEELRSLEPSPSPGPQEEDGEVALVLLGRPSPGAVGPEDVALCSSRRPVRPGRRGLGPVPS

Tests used:
Experiment in all cases: affinity purification with mass spectrometry; FLAG-tagged OTULIN baits stably expressed in HEK293 cells; cleared lysates (50 mM HEPES-KOH pH 8.0, 100 mM KCl, 2 mM EDTA, 0.1% NP40, 10% glycerol) on anti-FLAG M2 magnetic beads for 2 h; on-bead trypsin digestion, LC-MS/MS, SAINT against FLAG-vector controls; endogenous preys
FLAG-OTULIN^C105X = FLAG-OTULIN^C105X (UniProt Q96BN8)
FLAG-OTULIN^ΔPBM = FLAG-OTULIN^ΔPBM (UniProt Q96BN8)
[1] = molecular target: FLAG-tagged full-length OTULIN (WT) (UniProt Q96BN8)
FLAG-OTULIN^W96R = FLAG-OTULIN^W96R (UniProt Q96BN8)
FLAG-OTULIN^Δ54 = FLAG-OTULIN^Δ54 (UniProt Q96BN8)
[2] = molecular target: FLAG-tagged full-length OTULIN (WT) (UniProt Q96BN8); remark: listed apart in the source

Molecule: SLC9A3R2, endogenous (from UniProt Q15599 1-337)
- binding (FLAG-OTULIN^C105X): no binding
- binding (FLAG-OTULIN^ΔPBM): no binding
- binding [1]: binds

Molecule: scribble (SCRIB), endogenous (from UniProt Q14160 1-1655)
- binding (FLAG-OTULIN^C105X): no binding
- binding (FLAG-OTULIN^W96R): binds
- binding (FLAG-OTULIN^Δ54): binds
- binding (FLAG-OTULIN^ΔPBM): no binding
- binding [1]: binds

Now from value to molecule:

- binding [2]: no binding
B1: coat protein complex II (COPII) component Sec24b, endogenous (protein, UniProt O95487 1-1268)
chain: MSAPAGSSHPAASARIPPKFGGAAVSGAAAPAGPGAGPAPHQQNGPAQNQMQVPSGYGLHHQNYIAPSGHYSQGPGKMTSLPLDTQCGDYYSALYTVPTQNVTPNTVNQQPGAQQLYSRGPPAPHIVGSTLGSFQGAASSASHLHTSASQPYSSFVNHYNSPAMYSASSSVASQGFPSTCGHYAMSTVSNAAYPSVSYPSLPAGDTYGQMFTSQNAPTVRPVKDNSFSGQNTAISHPSPLPPLPSQQHHQQQSLSGYSTLTWSSPGLPSTQDNLIRNHTGSLAVANNNPTITVADSLSCPVMQNVQPPKSSPVVSTVLSGSSGSSSTRTPPTANHPVEPVTSVTQPSELLQQKGVQYGEYVNNQASSAPTPLSSTSDDEEEEEEDEEAGVDSSSTTSSASPMPNSYDALEGGSYPDMLSSSASSPAPDPAPEPDPASAPAPASAPAPVVPQPSKMAKPFGYGYPTLQPGYQNATAPLISGVQPSNPVYSGFQQYPQQYPGVNQLSSSIGGLSLQSSPQPESLRPVNLTQERNILPMTPVWAPVPNLNADLKKLNCSPDSFRCTLTNIPQTQALLNKAKLPLGLLLHPFRDLTQLPVITSNTIVRCRSCRTYINPFVSFIDQRRWKCNLCYRVNDVPEEFMYNPLTRSYGEPHKRPEVQNSTVEFIASSDYMLRPPQPAVYLFVLDVSHNAVEAGYLTILCQSLLENLDKLPGDSRTRIGFMTFDSTIHFYNLQEGLSQPQMLIVSDIDDVFLPTPDSLLVNLYESKELIKDLLNALPNMFTNTRETHSALGPALQAAFKLMSPTGGRVSVFQTQLPSLGAGLLQSREDPNQRSSTKVVQHLGPATDFYKKLALDCSGQQTAVDLFLLSSQYSDLASLACMSKYSAGCIYYYPSFHYTHNPSQAEKLQKDLKRYLTRKIGFEAVMRIRCTKGLSMHTFHGNFFVRSTDLLSLANINPDAGFAVQLSIEESLTDTSLVCFQTALLYTSSKGERRIRVHTLCLPVVSSLADVYAGVDVQAAICLLANMAVDRSVSSSLSDARDALVNAVVDSLSAYGSTVSNLQHSALMAPSSLKLFPLYVLALLKQKAFRTGTSTRLDDRVYAMCQIKSQPLVHLMKMIHPNLYRIDRLTDEGAVHVNDRIVPQPPLQKLSAEKLTREGAFLMDCGSVFYIWVGKGCDNNFIEDVLGYTNFASIPQKMTHLPELDTLSSERARSFITWLRDSRPLSPILHIVKDESPAKAEFFQHLIEDRTEAAFSYYEFLLHVQQQICK

- binding [2]: no binding
B2: GTP-binding protein Arfrp1, endogenous (protein, UniProt Q13795 1-201)
chain: MYTLLSGLYKYMFQKDEYCILILGLDNAGKTTFLEQSKTRFNKNYKGMSLSKITTTVGLNIGTVDVGKARLMFWDLGGQEELQSLWDKYYAECHGVIYVIDSTDEERLAESKQAFEKVVTSEALCGVPVLVLANKQDVETCLSIPDIKTAFSDCTSKIGRRDCLTQACSALTGKGVREGIEWMVKCVVRNVHRPPRQRDIT
